Test results from patent US20220204633A1 (UNIVERSIT T Z RICH, published 2022).

Chains of the proteins cited; added tags and fusions are not shown. Lines headed by an entry give the natural chain unless they say otherwise; changes in a name come on top.
UniProt P55899: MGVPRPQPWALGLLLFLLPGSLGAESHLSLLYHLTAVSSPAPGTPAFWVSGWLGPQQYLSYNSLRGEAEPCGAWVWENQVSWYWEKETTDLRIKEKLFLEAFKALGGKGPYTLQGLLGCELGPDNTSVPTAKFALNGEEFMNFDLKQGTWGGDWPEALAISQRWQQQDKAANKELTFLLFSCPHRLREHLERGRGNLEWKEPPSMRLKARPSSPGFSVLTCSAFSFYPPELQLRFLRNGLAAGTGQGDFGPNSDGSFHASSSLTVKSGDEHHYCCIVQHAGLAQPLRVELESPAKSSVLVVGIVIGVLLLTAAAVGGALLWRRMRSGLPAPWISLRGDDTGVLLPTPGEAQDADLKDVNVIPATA

Legend:
[1] = target: Histidine-coupled FcRn (R&D Systems) (human) (UniProt P55899); experiment: FcRn ELISA, IL-12Fc variants coated, His-FcRn titrated, pH 6.0
[2] = target: human recombinant biotinylated FcRn (Immunitrack) (human) (UniProt P55899); experiment: SPR (FIG. 5 A)
[3] = target: human recombinant biotinylated FcRn (Immunitrack) (human) (UniProt P55899); experiment: SPR, human recombinant FcRn immobilized, analyte in the liquid phase, pH 6.0; Kd by equilibrium analysis, plotted normalized to IL-12Fc WT
[4] = target: Histidine-coupled FcRn (R&D Systems) (human) (UniProt P55899); experiment: ELISA at pH 6.0: IL-12Fc variant coated on the plate, His-coupled human FcRn titrated 0.5 to 30 µg/ml, detected with biotinylated anti-His antibody and streptavidin-HRP; axis printed 'Binding to FcRn (OD620)'

Measured: binding

B1: human IL-12Fc NHQ (Fc fusion)
chain: IWELKKDVYVVELDWYPDAPGEMVVLTCDTPEEDGITWTLDQSSEVLGSGKTLTIQVKEFGDAGQYTCHKGGEVLSHSLLLLHKKEDGIWSTDILKDQKEPKNKTFLRCEAKNYSGRFTCWWLTTISTDLTFSVKSSRGSSDPQGVTCGAATLSAERVRGDNKEYEYSVECQEDSACPAAEESLPIEVMVDAVHKLKYENYTSSFFIRDIIKPDPPKNLQLKPLKNSRQVEVSWEYPDTWSTPHSYFSLTFCVQVQGKSKREKKDRVFTDKTSATVICRKNASISVRAQDRYYSSSWSEWASVPCSGGGGSGGGGSGGGGSRNLPVATPDPGMFPCLHHSQNLLRAVSNMLQKARQTLEFYPCTSEEIDHEDITKDKTSTVEACLPLELTKNESCLNSRETSFITNGSCLASRKTSFMMALCLSSIYEDLKMYQVEFKTMNAKLLMDPKRQIFLDQNMLAVIDELMQALNFNSETVPQKSSLEEPDFYKTKIKLCILLHAFRIRAVTIDRVMSYLNASKVDKRVESKYGPPCPPCPAPEFLGGPSVFLFPPKPKDTLMNSRTPEVTCVVVDVSQEDPEVQFNWYVDGVEVHNAKTKPREEQFNSTYRVVSVLTVLHQDWLNGKEYKCKVSNKGLPSSIEKTISKAKGQPREPQVYTLPPSPEEMTKNQVSLTCLVKGFYPSDIAVEWESNGQPENNYKTTPPVLDSDGSFFLYSRLTVDKSRWQEGNVFSCSVMHEALHNQYTQKSLSLSLGK
notes: also called NHQ variant
binds: all assays above

Results are given in words; binding and its absence hold for the method and conditions named. Binding calls can cover weak binding; strength is not graded here.
